In PubChem BioAssay AID504842 (National Center for Advancing Translational Sciences (NCATS), 2011):
Screen size: about 330,000 compounds; about 100 (0.03%) were called active. The inconclusive results got no clear call from the source; some entries with a clear call stand among them for comparison. Calls come from the whole dose curve; as a rule, active = well fitted inhibition curve with a large enough effect; inconclusive = small, poorly fitted or top-dose-only effect; inactive = flat fitted curve, though single readings scatter. Where the call is inconclusive, the potency comes from a doubtful curve fit.

These molecules were tested on Chaperonin Mm-Cpn (Methanococcus maripaludis) (assay: Inhibitors of TCP-1 ring complex (TRiC) of Methanococcus maripaludis (MmCpn): qHTS). Conditions: purified Mm-Cpn ATPase, ADP Transcreener TR-FRET; series mostly up to 76.9 µM; activity, negative = inhibition: at the top concentration.
Outline: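 Eu-cryptate anti-ADP/ADP-d2 competition gives a ratio inversely related to ADP. Enzyme at 25 nM was pre-exposed to compound for 10 min, then given 10 uM ATP for 30 min, 37°C throughout.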
% is set by controls: 0 for no effect and ±100 for the full control effect; potency is the fitted concentration of half-maximal effect.
Note: nearly all actives have a fitted effect of over 80% in size.
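Throughout, for potency: enzyme at 25 nM with ATP substrate at 10 µM during the reaction.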

Potency, inconclusive:
Cc1c(C(c2ccccc2O)c2c(C)n(C)n(-c3ccccc3)c2=O)c(=O)n(-c2ccccc2)n1C 25.1 µM [inhibitor, single point]
N#Cc1ccccc1NC(=O)COc1c(Br)cc(Br)c2cccnc12 100 µM [inhibitor, single point]
O=[N+]([O-])c1ccc(/C=N/Nc2nc(N3CCOCC3)nc(N3CCOCC3)n2)cc1 56.2 µM [inhibitor, single point]
O=C(NCCCN1CCOCC1)c1ccc2c(c1)N(Cc1cccc(F)c1)C(=O)c1ccccc1S2 63.1 µM [inhibitor, partial curve, poor fit]
COC(=O)Sc1nnc(-c2ccc(Br)cc2)o1 100 µM [inhibitor, partial curve, poor fit]
CC(C)(C)c1cc(C(F)(F)F)n2ncc(-c3ccccc3)c2n1 79.4 µM [inhibitor, partial curve, poor fit]
Cc1ccc(Nc2cnn(C34CC5CC(CC(CC(=O)O)(C5)C3)C4)c(=O)c2Cl)c(Cl)c1 79.4 µM [inhibitor, single point]
Cc1ccccc1NS(=O)(=O)c1cccc2nsnc12 7.94 µM [inhibitor, single point]
COC(=O)c1sc(NC(=O)c2c(OC)cccc2OC)c(C#N)c1C 224 µM [inhibitor, partial curve, poor fit]
COc1ccccc1-c1sc2ccccc2c1C#CC1(O)CCCCC1 100 µM [inhibitor, partial curve, poor fit]
COc1ccc2c(c1)CCc1cc(C(=O)N3CCN(c4ccc(N5CCOCC5)nn4)CC3)sc1-2 631 µM [inhibitor, partial curve, poor fit]
NC(=O)c1oc2ccccc2c1NC(=O)c1nc2ccccc2s1 126 µM [inhibitor, partial curve, poor fit]
CC(=O)c1cccc(NC(=O)/C(=C\c2cccnc2)NC(=O)c2ccccc2)c1 355 µM [inhibitor, partial curve, poor fit]
CC(=O)C1=C(O)C(=O)N(c2ccc(F)cc2)C1c1ccc(C)cc1 (stereo unspecified) 22.4 µM [inhibitor, single point]
Cc1ccc2[nH]c(=O)c(CN(Cc3ccco3)S(=O)(=O)c3c(C)ccc4nsnc34)cc2c1 63.1 µM [inhibitor, single point]
CC(C)(C)CC(C)(C)NC(=O)/C=C/C(=O)O 17.8 µM [inhibitor, single point]
Cc1cc(=O)oc2cc(OCC(=O)Nc3nnc(C(C)C)s3)ccc12 100 µM [inhibitor, single point]
CC1Cc2ccccc2N1S(=O)(=O)c1cccc(C(=O)NCCCn2ccnc2)c1 (stereo unspecified) 22.4 µM [inhibitor, single point]
CCOc1cc(C(=O)Nc2cc(C)ccn2)cc(OCC)c1OCC 63.1 µM [inhibitor, single point]
O=C(NC(=S)Nc1cccc2ncccc12)c1ccccc1 79.4 µM [inhibitor, single point]
COCc1ccc(-c2c(-c3ccccc3OC)sc3cc4c(cc23)OCO4)cc1 22.4 µM [inhibitor, partial curve, poor fit]
O=C(Nc1ccc(F)cc1)Nc1cnccn1 11.2 µM [inhibitor, single point]
CCN(CC)c1ccc2nc3ccc(N)cc3[n+](-c3ccccc3)c2c1 63.1 µM [inhibitor, partial curve]
Cc1ccc(-c2nc(CS(=O)(=O)CC(=O)NC3CC3)c(C)o2)cc1 20 µM [inhibitor, single point]
[O-]/C(=C(\C(=S)Nc1ccc(SC(F)F)cc1)[n+]1ccccc1)c1ccc(Cl)cc1Cl 100 µM [inhibitor, single point]
c1ccc(CSc2ccc(-c3ccccn3)nn2)cc1 70.8 µM [inhibitor, single point]
NC(N)=NS(=O)(=O)c1ccc(NC(=S)NC(=O)c2sc3ccccc3c2Cl)cc1 100 µM [inhibitor, single point]
CCOC(=O)c1ccc(N=C2C(=S)N(c3ccc(C(=O)OCC)cc3)C(=N)N2/N=C/c2ccccc2)cc1 178 µM [inhibitor, partial curve, poor fit]
CCn1c(SCC(=O)c2cccs2)nnc1-c1cccs1 56.2 µM [inhibitor, single point]
O=C(N/N=C/c1ccc(Cl)cc1Cl)c1cccc(N2CCCC2=O)c1 12.6 µM [inhibitor, single point]
CCOC(=O)C1=C(N)N(c2cc(S(=O)(=O)N3CCOCC3)ccc2Cl)C(=O)C1 63.1 µM [inhibitor, partial curve]
Cc1ccc(NNC(=O)c2c(F)cccc2Cl)cc1C 56.2 µM [inhibitor, single point]
Cn1nnnc1Sc1ncnc2scc(-c3ccc(-c4ccccc4)cc3)c12 89.1 µM [inhibitor, single point]
O=C(Cc1ccccc1)Nc1ccc2oc(-c3cccnc3)nc2c1 100 µM [inhibitor, partial curve, poor fit]
CCOc1ccc(-n2c(SCC(=O)NC(C)CC)nc3n[nH]c(C)c3c2=N)cc1 (stereo unspecified) 79.4 µM [inhibitor, single point]
Cc1cccc(N=Nc2cnc(N)s2)c1 100 µM [inhibitor, partial curve, poor fit]
CCCc1[nH]n(-c2ccc([N+](=O)[O-])cc2)c(=O)c1C=NCCc1ccc(OC)c(OC)c1 39.8 µM [inhibitor, single point]
Cc1ccccc1CNC(=O)Cn1cnc(S(=O)(=O)N2CCCC2)c1 25.1 µM [inhibitor, partial curve, poor fit]
CCOc1ccc(NC(=O)COC(=O)CC2CC3CCC2C3)cc1 (stereo unspecified) 11.2 µM [inhibitor, partial curve, poor fit]
c1ccc2cc3c(NCCN4CCOCC4)ccnc3cc2c1 25.1 µM [inhibitor, single point]
CCCC(=O)Nc1cccc(C(=O)Nc2ccccc2OCC)c1 22.4 µM [inhibitor, single point]
CCC(C(=O)NCc1ccco1)N(C(=O)CNS(=O)(=O)c1ccc(F)cc1)c1ccccc1F (stereo unspecified) 22.4 µM [inhibitor, single point]
COc1cccc(NC(=O)CN(C)C(=O)c2ccccc2OCc2c(C)noc2C)c1 70.8 µM [inhibitor, single point]
O=C(NC(=S)Nc1ccc(N2CCCC2)cc1)c1ccccc1[N+](=O)[O-] 22.4 µM [inhibitor, single point]
CCc1cccc(NS(=O)(=O)c2ccc3c(c2)NC(=O)C(C)S3)c1 (stereo unspecified) 14.1 µM [inhibitor, single point]
COC(=O)c1ccc(/C=N/NC(=O)C2CC(=O)N(c3ccc(OC)cc3)C2)cc1 (stereo unspecified) 100 µM [inhibitor, single point]
O=C1NC(NS(=O)(=O)c2ccc(Cl)cc2)(C(F)(F)F)C(=O)N1CCc1ccccc1 (stereo unspecified) 28.2 µM [inhibitor, single point]

activity, negative = inhibition, inactive:
COc1ccccc1N1CCN(C(=O)c2ccc(Cn3c(=S)[nH]c4cc5c(cc4c3=O)OCO5)cc2)CC1 -4.03%
S=c1[nH]nc(-c2ccco2)n1/N=C/c1cccc(Cl)c1 -3.78%
O=C(COC(=O)c1n[nH]c2ccccc12)NC(=O)NCc1ccco1 -0.386%
CC(C)[C@H]1COCCS(=O)(=O)N1Cc1cccc(Cl)c1 -4.4%
Nc1cc(OC(=O)c2cccs2)nn1S(=O)(=O)c1ccc(F)cc1 0.787%
CCC(c1nnnn1CCOC)N(Cc1cc2c(C)cc(C)cc2[nH]c1=O)CC1CCCO1 (stereo unspecified) 0.722%
Cc1ccc(C(=O)NC2CCCCC2)cc1S(=O)(=O)N1CCCC1 -0.744%
CC(C)C(C(=O)Nc1nccs1)N1C(=O)c2ccccc2C1=O (stereo unspecified) 0.739%
OC(COc1ccc2c(c1)CCC2)CN1CCN(c2ccccc2F)CC1 (stereo unspecified) 0.767%
CCCCn1c(-c2csc3c2CCCC3)n[nH]c1=S -0.082%
CCn1c(C)cc(/C=C2\NC(=O)N(CC(=O)Nc3ccc(F)cc3)C2=O)c1C -4.54%
CCOC(=O)c1c(C)[nH]c(C(=O)OC(C)C(=O)Nc2ccccc2OC)c1C (stereo unspecified) -0.832%
Cc1cccc(C)c1NC(=O)c1nc(S(=O)(=O)Cc2ccccc2)ncc1Cl -2.05%
O=C(NC(NC(=S)Nc1ccccc1C(=O)O)C(Cl)(Cl)Cl)c1ccco1 (stereo unspecified) -2.58%
CCOC(=O)c1ccc(CNC(=O)C2CCCCC2C(=O)OCC(F)(F)F)o1 (stereo unspecified) 0.453%
O=C(NC1CC(=O)N(c2ccc3c(c2)OCCO3)C1)N1CCCCC1 (stereo unspecified) -1.18%
O=[N+]([O-])c1cc(Cl)c(O)c2ncccc12 3.42%
COc1ccc(Br)cc1/C=N/n1c(-c2ccccc2)n[nH]c1=S 0.443%
COc1ccc(/C(C)=N/Nc2ccc(C(=O)O)cc2)c(OC)c1 -2.55%

Ordered by molecular weight (rising): part of the list above
activity, negative = inhibition, inactive:
S=c1[nH]nc(-c2ccco2)n1/N=C/c1cccc(Cl)c1 -3.78%
CC(C)[C@H]1COCCS(=O)(=O)N1Cc1cccc(Cl)c1 -4.4%
Cc1ccc(C(=O)NC2CCCCC2)cc1S(=O)(=O)N1CCCC1 -0.744%
CCOC(=O)c1c(C)[nH]c(C(=O)OC(C)C(=O)Nc2ccccc2OC)c1C (stereo unspecified) -0.832%
